Assay results reported in ChEMBL document CHEMBL5380782, “Design, Biological Evaluation, and Computer-Aided Analysis of Dihydrothiazepines as Selective Antichlamydial Agents” (J Med Chem, 2023).
Values after ≈ are worked out from the molar mass of the structure shown.

System: Candida albicans
Assay: Antimicrobial activity against Candida albicans 90028 assessed as microbial growth inhibition by broth microdilution method
Format: functional

OC(Cn1cncn1)(Cn1cncn1)c1ccc(F)cc1F [FLUCONAZOLE]
MIC: 1 µg/mL (≈ 3.27 µM)
